{
  "source": "patent US11072584B2",
  "about": "“Carbon monoxide releasing norbornenone compounds” (OTAGO INNOVATION LIMITED, priority 2015, dated 2021)",
  "assay": "CO release measured with amperiometric CO selective electrode",
  "assay_type": "physicochemical",
  "conditions": "UW Machine Perfusion solution or Tris sucrose buffer",
  "note": "Where a name gives a salt, the structure may show the parent alone. Some of these results come from one statement about several compounds together.",
  "data": [
    {"smiles": "CC12C(=O)C(C)(C(c3ccccc3)=C1c1ccccc1)C1(Br)C(=O)N(CCNCCN)C(=O)C21", "note": "(stereo not shown) [oCOm-23, 2-(2-(2-Aminoethyl)aminoethyl)-3a-bromo-3a,4,7,7a-tetrahydro-4,7-dimethyl-5,6-diphenyl-4,7-methano-1H-isoindole-1,3,8(2H)-trione bis-trifluoroacetate Salt]", "values": [
      {"measurement": "time for which CO release was sustained", "value": "over 80 minutes"}
    ]}
  ]
}
